Source: publication PMC8584237, “Helicobacter pylori Neutrophil-Activating Protein Directly Interacts with and Activates Toll-like Receptor 2 to Induce the Secretion of Interleukin-8 from Neutrophils and ATRA-Induced Differentiated HL-60 Cells” (International Journal of Molecular Sciences, 2021)
No constants are given. Whether binding was seen depends on the method and setting.

The chains behind the UniProt entries cited, without tags or fusion partners. Residues count along the entry.
UniProt P43313: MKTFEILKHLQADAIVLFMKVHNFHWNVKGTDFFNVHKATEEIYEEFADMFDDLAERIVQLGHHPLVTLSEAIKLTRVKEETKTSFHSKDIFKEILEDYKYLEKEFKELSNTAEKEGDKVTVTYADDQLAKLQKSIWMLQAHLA
UniProt O00206, residues 24-631: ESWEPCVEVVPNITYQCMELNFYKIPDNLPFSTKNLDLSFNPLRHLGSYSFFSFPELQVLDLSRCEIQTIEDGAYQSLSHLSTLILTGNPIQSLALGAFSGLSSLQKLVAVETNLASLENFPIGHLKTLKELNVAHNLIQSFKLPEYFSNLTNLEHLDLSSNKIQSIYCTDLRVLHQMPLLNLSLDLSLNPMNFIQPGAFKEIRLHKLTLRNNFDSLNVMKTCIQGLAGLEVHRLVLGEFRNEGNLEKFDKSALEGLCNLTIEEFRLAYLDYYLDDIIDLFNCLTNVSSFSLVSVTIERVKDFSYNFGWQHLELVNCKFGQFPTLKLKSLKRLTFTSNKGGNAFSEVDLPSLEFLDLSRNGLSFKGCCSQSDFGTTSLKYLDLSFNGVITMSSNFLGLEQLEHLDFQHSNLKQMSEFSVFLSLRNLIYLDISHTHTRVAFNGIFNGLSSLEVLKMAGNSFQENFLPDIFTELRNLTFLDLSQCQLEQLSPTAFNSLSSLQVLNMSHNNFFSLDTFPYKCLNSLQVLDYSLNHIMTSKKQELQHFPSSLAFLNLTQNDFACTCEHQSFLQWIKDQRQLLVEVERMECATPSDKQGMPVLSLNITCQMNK

Molecular target: Helicobacter pylori neutrophil-activating protein (H. pylori strain 26695) (UniProt P43313)
Test: ELISA; ELISA-based solid-phase binding assay: 0.05 μg HP-NAP coated on MaxiSorp wells (carbonate-bicarbonate buffer pH 9.6, 4 °C overnight), blocked with 1% BSA; TLR2-10xHis or TLR4-10xHis added at 0.078125-2.5 μg in 100 µL PBS-T with 1% BSA, room temperature 2 h; detected with anti-6x His tag antibody, OD 450 nm; both purified

Recombinant human TLR4 protein Glu24-Lys631, with a C-terminal 10-His tag (from UniProt O00206 24-631) (receptor)
binding: no binding (tested: up to 2.5 μg)
